Values from PubChem BioAssay AID686938 (Drosophila RNAi Screening Center, 2013).
The deposit covers about 23,000 reagents; this is a random part of those that have a named target and a result. Of all reagents, 75 (0.33%) got an active call. 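Raw plate signals without normalisation; calls rest on plate z-scores that were not deposited; ratio present for only 364 wells.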 Names joined by + are all predicted targets of the reagent. Not given: the dose of the treatment.

Aim: 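Looking for CRAC channel components and the factors controlling them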 (primary screen)
System: Drosophila S2R+ cells
Reagents: long dsRNA against Drosophila genes, about 0.25 µg dsRNA per well, roughly 10,000 cells
Timing: 5 days of knock-down before the calcium assay
Treatment: thapsigargin (SERCA pump blocker) to empty calcium stores; entry signal taken 4 min after adding it
Detection: 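Per-well fluo-4 fluorescence in two replicates, unnormalised, measured in resting cells and 4 min after store depletion by the SERCA blocker thapsigargin; ratio of the two present in few wells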
Direction: calcium entry signal: higher = stronger calcium signal after store depletion; resting calcium signal: higher = higher resting calcium signal
Units: calcium entry signal in fluorescence units; resting calcium signal in fluorescence units
Call rule: 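Called when the plate z-score of the entry-to-rest ratio, mean of duplicates, falls below −3; wells with low overall dye signal (Fmax z below −2) or more than five off-targets excluded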
Meaning of the calls: active = strongly reduced calcium entry; inactive = no strong reduction

What is on record for put (punt) [DRSC17039]?
calcium entry signal, replicate 1: 3.03e7; calcium entry signal, replicate 2: 4.14e7; resting calcium signal, replicate 1: 1.33e7; resting calcium signal, replicate 2: 1.82e7; Outcome: inactive

For CG31875 [DRSC21975], how do the results read?
calcium entry signal, replicate 1: 1.92e7; calcium entry signal, replicate 2: 5.46e7; resting calcium signal, replicate 1: 9.59e6; resting calcium signal, replicate 2: 2.55e7; Outcome: inactive

How did the screen score CG3165 [DRSC00573]?
calcium entry signal, replicate 1: 3.98e7; resting calcium signal, replicate 1: 1.98e7; Outcome: inactive

What is on record for Nplp2 (Neuropeptide-like precursor 2) [DRSC09824]?
calcium entry signal, replicate 1: 2.76e7; calcium entry signal, replicate 2: 4.70e7; resting calcium signal, replicate 1: 1.52e7; resting calcium signal, replicate 2: 2.04e7; Outcome: inactive

With CG7465 [DRSC08592], how do the results read?
calcium entry signal, replicate 1: 2.45e7; calcium entry signal, replicate 2: 4.07e7; resting calcium signal, replicate 1: 1.17e7; resting calcium signal, replicate 2: 1.76e7; Outcome: inactive

Which result is listed for CG7465 [DRSC22320]?
calcium entry signal, replicate 1: 3.82e7; calcium entry signal, replicate 2: 5.18e7; resting calcium signal, replicate 1: 1.77e7; resting calcium signal, replicate 2: 2.92e7; Outcome: inactive

Which result is listed for GAPcenA (GTPase activating protein and centrosome-associated) [DRSC10771]?
calcium entry signal, replicate 1: 2.64e7; calcium entry signal, replicate 2: 4.39e7; resting calcium signal, replicate 1: 1.23e7; resting calcium signal, replicate 2: 1.81e7; Outcome: inactive

With mah (mahogany) [DRSC14645], what does the deposit list?
calcium entry signal, replicate 1: 3.74e7; calcium entry signal, replicate 2: 8.82e7; resting calcium signal, replicate 1: 1.68e7; resting calcium signal, replicate 2: 3.14e7; Outcome: inactive

What did the screen give for CG10151 [DRSC05974]?
calcium entry signal, replicate 1: 4.15e7; calcium entry signal, replicate 2: 4.42e7; resting calcium signal, replicate 1: 1.74e7; resting calcium signal, replicate 2: 1.98e7; Outcome: inactive

In a second layout: entries from further up
{"target":"CG7465","DRSC id":"DRSC22320","calcium entry signal, replicate 1":3.82e7,"calcium entry signal, replicate 2":5.18e7,"resting calcium signal, replicate 1":1.77e7,"resting calcium signal, replicate 2":2.92e7,"Outcome":"inactive"}
{"target":"GAPcenA (GTPase activating protein and centrosome-associated)","DRSC id":"DRSC10771","calcium entry signal, replicate 1":2.64e7,"calcium entry signal, replicate 2":4.39e7,"resting calcium signal, replicate 1":1.23e7,"resting calcium signal, replicate 2":1.81e7,"Outcome":"inactive"}

More records follow.
With CG1239 [DRSC12204], what was measured?
calcium entry signal, replicate 1: 3.02e7; calcium entry signal, replicate 2: 3.61e7; resting calcium signal, replicate 1: 1.37e7; resting calcium signal, replicate 2: 1.54e7; Outcome: inactive

How did the screen score CG15635 [DRSC00470]?
calcium entry signal, replicate 1: 2.58e7; calcium entry signal, replicate 2: 3.59e7; resting calcium signal, replicate 1: 1.33e7; resting calcium signal, replicate 2: 1.74e7; Outcome: inactive

What did the screen give for CG15635 [DRSC22873]?
calcium entry signal, replicate 1: 4.40e7; calcium entry signal, replicate 2: 3.58e7; resting calcium signal, replicate 1: 2.09e7; resting calcium signal, replicate 2: 1.45e7; Outcome: inactive

How did the screen score ste24c + CR30461 (retired record) [DRSC05639]?
calcium entry signal, replicate 1: 2.79e7; calcium entry signal, replicate 2: 4.68e7; resting calcium signal, replicate 1: 1.41e7; resting calcium signal, replicate 2: 2.27e7; Outcome: inactive

What did the screen give for ste24c + CR30461 (retired record) [DRSC07316]?
calcium entry signal, replicate 1: 3.89e7; calcium entry signal, replicate 2: 4.33e7; resting calcium signal, replicate 1: 1.71e7; resting calcium signal, replicate 2: 2.04e7; Outcome: inactive

For CG5171 [DRSC02823], how do the results read?
calcium entry signal, replicate 1: 4.48e7; resting calcium signal, replicate 1: 2.07e7; Outcome: inactive

Which result is listed for dome (domeless) [DRSC19583]?
calcium entry signal, replicate 1: 2.71e7; calcium entry signal, replicate 2: 2.59e7; resting calcium signal, replicate 1: 1.31e7; resting calcium signal, replicate 2: 1.26e7; Outcome: inactive

What is on record for Edg78E (Ecdysone-dependent gene 78E) [DRSC11863]?
calcium entry signal, replicate 1: 2.17e7; calcium entry signal, replicate 2: 3.21e7; resting calcium signal, replicate 1: 1.04e7; resting calcium signal, replicate 2: 1.62e7; Outcome: inactive

Which result is listed for Pdk (Pyruvate dehydrogenase kinase) [DRSC07504]?
calcium entry signal, replicate 1: 3.33e7; calcium entry signal, replicate 2: 2.70e7; resting calcium signal, replicate 1: 1.42e7; resting calcium signal, replicate 2: 1.27e7; Outcome: inactive

For CG8840 [DRSC00713], what was measured?
calcium entry signal, replicate 1: 3.38e7; calcium entry signal, replicate 2: 3.26e7; resting calcium signal, replicate 1: 1.70e7; resting calcium signal, replicate 2: 1.51e7; Outcome: inactive

For Nsun5 (Nop2/Sun-like domain containing protein 5) [DRSC15835], what does the deposit list?
calcium entry signal, replicate 1: 2.98e7; calcium entry signal, replicate 2: 2.51e7; resting calcium signal, replicate 1: 1.32e7; resting calcium signal, replicate 2: 1.11e7; Outcome: inactive

For Smyd4-1 (SET and MYND domain containing, class 4, member 1) [DRSC06785], what was measured?
calcium entry signal, replicate 1: 4.24e7; calcium entry signal, replicate 2: 2.88e7; resting calcium signal, replicate 1: 1.78e7; resting calcium signal, replicate 2: 1.38e7; Outcome: inactive
